Library screen at single concentrations

A: 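Growth of Mycobacterium tuberculosis over 4 days (cholesterol / DPPC medium with tyloxapol); the read-out is not stated. Tested at 50 µM. The record gives no direction; compounds that gave an IC50 in retests scored well above the rest, so higher reads as more growth inhibition. About 69,000 compounds were tested under these conditions; 0.54% (about 370) showed 50% or more at least once.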
B: 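Growth of Mycobacterium tuberculosis over 3 days (7H9 medium with glucose and tyloxapol); the read-out is not stated. Concentration: 50 µM. Direction is inferred from retests: higher values go with more growth inhibition. Of about 69,000 compounds tested this way, about 760 (1.1%) reached 50% or more in at least one test.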

Values are the deposited “Percent Effect”, in %. How 0% and 100% were set is not recorded. Most values in the screen are low, and negative values occur. This is an unselected part of the compounds tested. Two or more numbers in one place are separate tests of the same structure; such repeats can differ widely.

- CCCSc1ccccc1NC(=O)N1CCN(C(=O)c2ccc[nH]2)CC1 | A: -25.06%; B: 4.145%
- O=C(O)C(F)(F)F.c1cnc(N2CCCC3(COCCN(CC4CC4)C3)C2)nc1 (centres undefined) | A: -2.556%; B: 18.78% & 0.2777%
- COc1ccccc1C1(CNc2cn[nH]c(=O)c2Cl)CC1 | A: -27.6%; B: 7.332%
- CCCOC(C)Cn1ccc2[nH]c(=O)c(C#N)cc2c1=O (centres undefined) | A: -30.77%; B: -67.52%
- Cc1ccc(C)n1-c1ccsc1C(=O)NCC(=O)N1CCCC1 | A: -11.66%; B: 8.467%
- [H][C@@]12CN(Cc3nccs3)C[C@]1([H])CN(C(=O)c1cscn1)C2 | A: -22.97% & -14.93%; B: -11.88%
- Cc1cc(C)n(Cc2cc(C(=O)N[C@H]3CCCCNC3=O)n[nH]2)n1 | A: 12.09%; B: 6.846%
- COCCn1ccnc1CN(Cc1ccccn1)Cc1sccc1C | A: 12.53% & 13.04%; B: 18.56%
- O=C(O)C(F)(F)F.[H][C@@]12OCCN(C(=O)C3=CCCCC3)[C@@]1([H])CC[C@H]2Oc1ccccn1 | A: 13.85%; B: 23.32% & 4.458%
- C[C@@H]1CN(C(=O)C2(Cn3cccn3)CC2)CC[C@@]1(O)C1CCOCC1 | A: 17.55%; B: -19.24%
- Cc1ccc(N2Cc3cnn(C)c3C(COCC3CC3)C2)nn1.O=C(O)C(F)(F)F.O=C(O)C(F)(F)F (centres undefined) | A: -0.199%; B: 9.826%
- Cn1cnc2nc3n(c2c1=O)CCC3 | A: -19.54%; B: -5.497% & 4.279%
- O=C(NCCN1CCOCC1)c1ccn(-c2ccc3ccccn23)n1.O=C(O)C(F)(F)F | A: 12.41%; B: 14.96%
- O=C(NCCn1cc(Cl)cn1)C1CCN(C(=O)C2CC2)CC1 | A: -22.65%; B: -36.21%
- COc1ccc(Br)c(C(=O)N2CCC(c3n[nH]c(C4CC4)n3)CC2)c1 | A: 12.82%; B: 14.79%
- Cn1ncc(N2CCN(Cc3ccc(S(C)(=O)=O)cc3)CC2)cc1=O | A: 4.852%; B: 8.721% & -4.407%
- CCc1nc(C2CCCN(C(=O)c3ccc(OC)cc3)C2)no1 (centres undefined) | A: 0.0671%; B: 14.75%
- Cc1cc(OCC(=O)NS(=O)(=O)c2cccnc2)ccc1Cl | A: -9.07%; B: 1.096%
- Cc1nc(NC(=O)C(C)n2ncc(Br)c2C)sc1C (centres undefined) | A: -0.9349%; B: 3.376% & -0.687%
- CCc1n[nH]c(C2CN(CCCOc3cccc(C)c3)CCO2)n1 (centres undefined) | A: 2.882%; B: 3.977%
- CC(C)Cc1ncc2c(n1)CN(c1nc3ccccc3cc1CO)C2 | A: 24.71%; B: 11.17% & -7.182%
- COCc1nc(C(=O)N2CCCC2c2ccccc2C)cs1 (centres undefined) | A: 20.64%; B: 33.11%
- O=C(O)C(F)(F)F.[H][C@@]12CCCO[C@]1([H])[C@H](OCC(=O)N(C)C)CN2Cc1scnc1C | A: 1.658% & -7.509%; B: -3.638% & 0.101%
- COc1c(CNCc2ccccc2-n2ccnc2)c(C)nn1C | A: -11.31%; B: 1.805%
- O=C(c1cnc(O)c(Cl)c1)N1CCCC(c2nccs2)C1 (centres undefined) | A: -13.89% & -7.283%; B: -15.89%
- Cc1cc2ncn(C(=O)N3CCCCC3)c2cc1C | A: 21.07%; B: 2.724%
- COc1cc(C(=O)NS(=O)(=O)c2cccc(C#N)c2)cc(OC)c1C | A: 8.424%; B: -3.464%
- CCOc1ccccc1OC1CCN(C(=O)c2[nH]nc(C)c2Br)CC1 | A: 9.715%; B: -23.66% & 8.72%
- [H][C@@]12CS(=O)(=O)C[C@]1([H])N(S(=O)(=O)c1cccc(F)c1)CCN2C(=O)CC | A: -12.06%; B: -10.72%
- N#Cc1cnc(NCc2cccc(C(=O)N3CCCC3)c2)c(Cl)c1 | A: 1.078%; B: -13.38%
- Cc1[nH]c2ccc(CNC(=O)c3ccc(CN4CCCC4)o3)cc2c1C | A: -5.317%; B: 2.862% & 15.65%
- Nc1nccc(NCc2cc3n(n2)CCCN(C2CCCCC2)C3)n1 | A: -8.383%; B: 23.7%
- COc1cccc(OCC(=O)N(C)c2cccnc2)c1 | A: -13.83%; B: 0.3486%
- CC1CCN(c2ncc3c(n2)CN(C2CCS(=O)(=O)C2)C3=O)CC1 (centres undefined) | A: -9.899%; B: -42.47%
- NCC1Cc2cc(-c3cncc(C(=O)N4CCOCC4)n3)cc(Cl)c2O1 (centres undefined) | A: -11.55%; B: 1.076%
- CC(C)NC(=O)N1CCCC2(CCN(c3ccccc3)C2=O)C1 (centres undefined) | A: -4.322%; B: 23.76%
- O=C1CCN(C(=O)NCCc2c[nH]c3ccc(Cl)cc23)CCN1 | A: -9.862% & -26.68%; B: -20.66%
- Cc1ccc(O)c(C(=O)N2CCCC(NC(=O)C(C)C)C2)c1 (centres undefined) | A: 15.42%; B: 21.91%
- CN(C(=O)NCc1nccn1Cc1ccccc1)C1CC1 | A: 0.03881%; B: -8.233%
- N#CCCCOc1cccnc1NC(=O)CC1CCCCC1 | A: -10.38%; B: -14.86%
- COc1ccc(F)cc1C(=O)N1CC(c2ccncc2)C1 | A: 5.787%; B: 6.143%
- Cn1ncc(N2CCC(CNC3CC(c4ccccc4)C3)CC2)cc1=O (centres undefined) | A: -8.905%; B: -8.69%
- [H][C@]12CC[C@]([H])(CN(S(=O)(=O)N(C)C)C1)N(C(=O)c1ccc(C)cc1O)C2 | A: -27.94%; B: -11.37%
- O=C(Nc1cnc2n1CCCC2)c1cccc(-n2cnnc2)c1 | A: -7.72%; B: -2.524% & -2.36%

Once more, the final 4:

| Compound | A | B |
|---|---|---|
| `COc1ccc(F)cc1C(=O)N1CC(c2ccncc2)C1` | 5.787% | 6.143% |
| `Cn1ncc(N2CCC(CNC3CC(c4ccccc4)C3)CC2)cc1=O` (centres undefined) | -8.905% | -8.69% |
| `[H][C@]12CC[C@]([H])(CN(S(=O)(=O)N(C)C)C1)N(C(=O)c1ccc(C)cc1O)C2` | -27.94% | -11.37% |
| `O=C(Nc1cnc2n1CCCC2)c1cccc(-n2cnnc2)c1` | -7.72% | -2.524% & -2.36% |

Data taken from ChEMBL document CHEMBL3988442, “University of Dundee, Small-Polar-MMV Screening Library” (2021).